Patent US20090104705A1, “Ascorbic acid conjugates” (priority 2005, published 2009)

Tests used:
[1] = Standard addition experiments on nonsmoker and smoker plasma; type: in vivo, human
Protocol: Two hundred-μl-Aliquots of a plasma sample were spiked with varying amounts of ascorbyl-HNE adduct to give concentrations of 1.0, 2.0, 4.0 and 6.0 μM. The plasma samples were also spiked with internal standard (ascorbyl-octenal, 25 μM final concentration). The samples were analyzed by LC/MS/MS-MRM as described above.
Standard addition experiments were conducted on nonsmoker and smoker plasma to further assess the accuracy and precision of the method developed for determination of the ascorbyl-HNE conjugate concentration in human plasma (FIGS. 6A and 6B). Aliquots of a nonsmoker plasma sample were spiked with synthetic ascorbyl-HNE adduct (1, 2, 4 and 6 μM) and ascorbyl-octenal adduct (25 μM). The samples were extracted as described previously and analyzed by LC/MS/MS-MRM (FIG. 6A). Aliquots of synthetic ascorbyl-HNE adduct and internal standard were run in parallel (FIG. 6B). Extrapolation of curve A1 to y=0 gave an ascorbyl-HNE conjugate concentration of 2.28 μM. A blank plasma sample was analyzed using the calibration curve (FIG. 6, curve A2), and the ascorbyl-HNE conjugate concentration was determined to be 2.68 μM. An analogous experiment using smoker plasma was conducted and the results are shown in FIG. 6, panel B. Extrapolation of curve B1 to y=0 gives an ascorbyl-HNE concentration of 0.35 μM. Analysis of this plasma sample using curve B2 of FIG. 6 gives a concentration of 0.32 μM.

[2] = Plasma ascorbyl-HNE conjugate by LC/MS/MS-MRM in smokers and nonsmokers; type: in vivo, human; conditions: mean ± SD
Protocol: Plasma samples were obtained from subjects who participated in a recently completed study at the Linus Pauling Institute. Participants were recruited on the basis of normal lipid status (total cholesterol <200 mg/dL; triglycerides <200 mg/dL), age (18-35 years), non-nutritional supplement use for greater than six months, and exercise status (<5 h/w of aerobic activity). Smokers were selected if they smoked >10 cigarettes/d, and smoking status of participants was verified by the measurement of urinary cotinine (Diagnostics Products Corp, CA).
A blood sample was obtained from the antecubital vein of each participant after an overnight fast (˜12 h) into blood collection tubes (Vacutainer, Becton Dickinson, Franklin Lakes, N.J.) containing sodium heparin. Smokers were asked to refrain from smoking for 1 h prior to blood collection to obviate transient oxidative stress effects. Plasma was separated by centrifugation (500×g, 15 min, 4° C.; Beckman TJ-6, Palo Alto, Calif.), aliquoted into cryovials, snap frozen in liquid nitrogen, and then stored at −80° C. until analysis. Urine was collected for 24 h on a single occasion to evaluate urinary cotinine. Aliquots of urine were stored at −80° C. until analysis.
Two hundred-μl aliqots of human plasma were acidified with 250 μl of 0.1 M HCl. One ml of water was then added. Ethyl acetate was used to extract the ascorbyl-HNE conjugate (3×3 ml). The combined organic layers were then dried under a stream of nitrogen. The residue was redissolved in 65 μl of ethanol and mixed with 65 μl of LC Solvent A. Prior to injection, the samples were centrifuged for 5 min at 10,000 RPM. Injection volumes were 20 μl. Controls for the formation of ex vivo-artifact formation were performed as described previously.
A curve allowing for the determination of ascorbylated HNE in human plasma was constructed utilizing liquid chromatography with tandem mass spectrometry operated in multiple reaction monitoring mode (LC/MS/MS-MRM). Varying amounts of the ascorbyl-HNE adduct were mixed with a fixed amount of the internal standard, ascorbyl-octenal, to give 0.5, 1.0, 5.0, 10 and 50 μM of the analyte and 25 μM of the internal standard. […] The transitions m/z 350→m/z 177 and m/z 320→m/z 223 were used for quantitation of the synthetic standard and internal standard, respectively. […]
Plasma samples from twenty subjects, ten smokers and ten nonsmokers, were prepared as described above, with the exception that the samples were spiked with internal standard (ascorbyl-octenal, 25 μM final concentration) prior to extraction. The samples were analyzed by LC/MS/MS-MRM and the concentration of the ascorbyl-HNE adduct determined through comparison with a calibration curve. […]
F2-isoprostane levels of the plasma samples also were determined. […]

CCCCCC1OC(O)CC1C1(O)C(=O)OC2C(O)COC21O (stereo not drawn) [ascorbyl-HNE conjugate, 3,3α,6-trihydroxy-3-(5-hydroxy 2-pentyl-tetrahydro-furan-3-yl)-tetrahydro-furo[3,2-b]furan-2-one]
ascorbyl-HNE conjugate concentration, calibration curve A2 ([1]; nonsmoker plasma sample, blank (unspiked)): 2.68 µM
ascorbyl-HNE conjugate concentration, extrapolation of curve A1 to y=0 ([1]; nonsmoker plasma sample, standard addition): 2.28 µM
ascorbyl-HNE concentration, curve B2 ([1]; smoker plasma sample): 0.32 µM
ascorbyl-HNE concentration, extrapolation of curve B1 to y=0 ([1]; smoker plasma sample, standard addition): 0.35 µM
plasma ascorbyl-HNE conjugate concentration ([2]; nonsmokers (n = 10)): 1.16 µM
plasma ascorbyl-HNE conjugate concentration ([2]; nonsmokers (n = 10), listed as Ascorbyl-HNE): 1.16 ± 0.65 µM
plasma ascorbyl-HNE conjugate concentration ([2]; smokers (n = 10)): 0.40 µM
plasma ascorbyl-HNE conjugate concentration ([2]; smokers (n = 10), listed as Ascorbyl-HNE): 0.40 ± 0.31 µM
